Data published in PMC9262955.
No constants are given. Whether binding was seen depends on the method and setting. For part of these data: In cells and extracts the contact can be indirect. Some entries that bind do so weakly or less than the wild type.

Sequences of proteins named here, by UniProt entry; tags and fusion partners are left off.
UniProt Q9I1W9: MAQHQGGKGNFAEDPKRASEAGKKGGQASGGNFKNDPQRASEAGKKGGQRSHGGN
UniProt Q9I1T1: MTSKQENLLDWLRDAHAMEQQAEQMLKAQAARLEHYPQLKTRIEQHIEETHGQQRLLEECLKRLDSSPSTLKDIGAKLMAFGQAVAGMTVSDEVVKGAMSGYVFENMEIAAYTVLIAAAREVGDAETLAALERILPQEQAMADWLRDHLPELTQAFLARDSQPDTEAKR

What was measured:
[1] = target: V5-tagged PA2146 (P. aeruginosa PAO1) (UniProt Q9I1W9); test: co-IP; total protein cell extracts (200 µg) of cells co-producing V5-tagged PA2146 and HA-tagged PA2184; immunoprecipitation with immobilized anti-V5 antibodies (2 µg/mL), immunoblot with anti-HA
[2] = target: PA2146 fused to the T25 fragment of adenylate cyclase (pKT25) (P. aeruginosa PAO1) (UniProt Q9I1W9); test: two-hybrid; BACTH in E. coli DHM1, quantified by β-galactosidase activity (Miller assay)
[3] = target: PA2146 fused to the T25 fragment of adenylate cyclase (pKT25) (P. aeruginosa PAO1) (UniProt Q9I1W9); test: two-hybrid; bacterial adenylate cyclase two-hybrid (BACTH) in E. coli DHM1; T18 and T25 fusions co-expressed; spotted on LB agar with ampicillin, kanamycin, IPTG and X-Gal, 30 °C; blue colonies

Substance: HA-tagged PA2184 (from UniProt Q9I1T1 1-169)
- binding [1]: binds

Substance: PA2184 fused to the T18 fragment of adenylate cyclase (pUT18C) (from UniProt Q9I1T1 1-169)
- binding [2]: binds
- binding [3]: binds
